Measured values taken from doi:10.1101/2022.10.18.512811 (bioRxiv, 2022).
No constants are given. Whether binding was seen depends on the method and setting. In cells and extracts the contact can be indirect. Some results given as binding are weak or reduced against the parent protein; the word gives no strength. For some of these results: Where a sequence is shown, tags or fusion partners need not be part of it.

How the values were obtained:
[1] = biological target: T1, purified, soluble, C-terminal His×6-tagged NlpE (E. coli) (UniProt P40710); assay: pull-down
T1 sequence: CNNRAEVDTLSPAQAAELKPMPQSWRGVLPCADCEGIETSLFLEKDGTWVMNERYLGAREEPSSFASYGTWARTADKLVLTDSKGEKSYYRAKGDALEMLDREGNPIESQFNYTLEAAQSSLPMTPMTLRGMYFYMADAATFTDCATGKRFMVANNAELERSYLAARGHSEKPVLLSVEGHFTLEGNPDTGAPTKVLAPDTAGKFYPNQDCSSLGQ

[2] = biological target: T2, NlpE at native levels of expression (E. coli (endogenous)) (UniProt P40710); assay: co-IP
T2 sequence (chain, lipid-modified N-terminal cysteine (Cys21)): T1 sequence

[3] = biological target: T3, over-produced NlpE (NlpE-overexpressing cells of the co-immunoprecipitation) (E. coli) (UniProt P40710); assay: co-IP
T3 sequence: T1 sequence

[4] = biological target: T4, C-terminally His-tagged WT NlpE expressed from pTrc99A (E. coli) (UniProt P40710); assay: cross-linking
T4 sequence (chain, lipid-modified N-terminal cysteine (Cys21)): T1 sequence

Measured: binding

B1: OmpA (protein, UniProt P0A910 22-346)
chain: APKDNTWYTGAKLGWSQYHDTGFINNNGPTHENQLGAGAFGGYQVNPYVGFEMGYDWLGRMPYKGSVENGAYKAQGVQLTAKLGYPITDDLDIYTRLGGMVWRADTKSNVYGKNHDTGVSPVFAGGVEYAITPEIATRLEYQWTNNIGDAHTIGTRPDNGMLSLGVSYRFGQGEAAPVVAPAPAPAPEVQTKHFTLKSDVLFNFNKATLKPEGQAALDQLYSQLSNLDPKDGSVVVLGYTDRIGSDAYNQGLSERRAQSVVDYLISKGIPADKISARGMGESNPVTGNTCDNVKQRAALIDCLAPDRRVEIEVKGIKDVVTQPQA
binds: all assays above
